Experimental data from article PMC3668167, “Ski-interacting protein (SKIP) interacts with androgen receptor in the nucleus and modulates androgen-dependent transcription” (BMC Biochemistry, 2013).
Results are given in words; binding and its absence hold for the method and conditions named. Binding seen in cells or lysates may run through a third protein. Some results given as binding are weak or reduced against the parent protein; the word gives no strength. Where a sequence is shown, tags or fusion partners need not be part of it. Blank lines part the entries; values can stand above or below the molecule they belong to.

Protein sequences, listed by entry. Tags and fused reporters are not part of them.
UniProt P10275: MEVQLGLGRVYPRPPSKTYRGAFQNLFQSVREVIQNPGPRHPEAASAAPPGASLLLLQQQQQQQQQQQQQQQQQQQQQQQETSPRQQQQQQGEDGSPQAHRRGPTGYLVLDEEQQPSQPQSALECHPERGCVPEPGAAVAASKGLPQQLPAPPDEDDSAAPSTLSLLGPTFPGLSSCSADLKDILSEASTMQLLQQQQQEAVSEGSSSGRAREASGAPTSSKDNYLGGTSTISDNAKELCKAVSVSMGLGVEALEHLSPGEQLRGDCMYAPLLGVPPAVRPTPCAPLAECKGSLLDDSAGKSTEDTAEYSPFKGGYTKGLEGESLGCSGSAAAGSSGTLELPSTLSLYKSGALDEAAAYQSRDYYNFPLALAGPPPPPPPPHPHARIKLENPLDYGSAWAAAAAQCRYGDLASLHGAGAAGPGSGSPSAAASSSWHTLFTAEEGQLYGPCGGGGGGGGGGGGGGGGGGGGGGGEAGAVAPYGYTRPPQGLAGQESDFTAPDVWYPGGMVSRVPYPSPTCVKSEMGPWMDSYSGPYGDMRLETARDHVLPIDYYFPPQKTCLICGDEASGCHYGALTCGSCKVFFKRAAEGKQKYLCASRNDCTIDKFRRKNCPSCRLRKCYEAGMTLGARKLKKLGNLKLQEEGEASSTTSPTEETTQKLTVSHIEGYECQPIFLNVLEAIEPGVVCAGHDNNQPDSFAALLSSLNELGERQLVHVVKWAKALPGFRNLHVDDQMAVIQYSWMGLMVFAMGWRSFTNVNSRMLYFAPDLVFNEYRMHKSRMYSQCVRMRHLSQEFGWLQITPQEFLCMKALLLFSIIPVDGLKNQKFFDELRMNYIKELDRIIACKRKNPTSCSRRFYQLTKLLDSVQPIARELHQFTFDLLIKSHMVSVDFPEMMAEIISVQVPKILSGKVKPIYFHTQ

Columns and labels:
[1] = biological target: T1, EYFP-SKIP (human Skip cDNA in pEYFP-C1) (human) (UniProt Q13573); assay: FRET or BRET; sensitised acceptor emission FRET imaging (FRET2 index), confocal time series of live serum-starved BHK cells stimulated with 10 nM DHT
T1 sequence: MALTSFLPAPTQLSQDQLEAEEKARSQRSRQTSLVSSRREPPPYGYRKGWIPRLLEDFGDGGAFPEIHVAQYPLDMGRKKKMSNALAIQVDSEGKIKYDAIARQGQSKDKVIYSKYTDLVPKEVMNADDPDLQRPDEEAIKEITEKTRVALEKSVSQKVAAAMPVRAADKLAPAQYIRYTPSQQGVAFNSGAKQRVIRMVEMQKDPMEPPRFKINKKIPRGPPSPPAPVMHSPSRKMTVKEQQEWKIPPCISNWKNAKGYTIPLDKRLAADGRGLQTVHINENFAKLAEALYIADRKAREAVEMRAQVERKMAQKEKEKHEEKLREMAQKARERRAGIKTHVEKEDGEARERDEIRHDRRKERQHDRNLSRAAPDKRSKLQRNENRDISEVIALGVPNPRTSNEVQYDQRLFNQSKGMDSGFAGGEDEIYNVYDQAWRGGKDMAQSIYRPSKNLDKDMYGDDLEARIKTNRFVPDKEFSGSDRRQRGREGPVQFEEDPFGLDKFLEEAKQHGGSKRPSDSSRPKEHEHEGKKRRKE

[2] = biological target: T2, HA-tagged Ski-interacting protein (SKIP-pCGN) (human) (UniProt Q13573); assay: co-IP; COS-7 cells co-transfected with pCMV-AR and SKIP-pCGN, with or without 1 nM DHT; RIPA lysates, precipitated with rabbit anti-AR (N20) or rabbit anti-HA and protein G-Sepharose, 4°C; blotted for HA or AR
T2 sequence: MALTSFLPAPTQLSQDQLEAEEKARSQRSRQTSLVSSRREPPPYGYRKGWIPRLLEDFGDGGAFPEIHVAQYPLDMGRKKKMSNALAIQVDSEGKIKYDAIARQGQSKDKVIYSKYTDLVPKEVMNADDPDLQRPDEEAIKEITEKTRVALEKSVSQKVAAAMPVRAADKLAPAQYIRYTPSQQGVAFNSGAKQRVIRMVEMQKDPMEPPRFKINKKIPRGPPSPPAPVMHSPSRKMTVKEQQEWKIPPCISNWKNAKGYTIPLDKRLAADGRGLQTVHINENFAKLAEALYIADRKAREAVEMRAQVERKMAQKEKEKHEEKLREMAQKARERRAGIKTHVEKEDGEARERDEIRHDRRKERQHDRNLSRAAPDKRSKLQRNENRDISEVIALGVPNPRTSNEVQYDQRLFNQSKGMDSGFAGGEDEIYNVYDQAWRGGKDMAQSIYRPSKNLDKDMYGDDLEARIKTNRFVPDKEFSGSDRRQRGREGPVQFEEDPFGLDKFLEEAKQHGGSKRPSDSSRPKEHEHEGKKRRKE

[3] = biological target: androgen receptor, full-length wild type (pCMV-AR) (human) (UniProt P10275); assay: as above

Molecule: AR-ECFP (AR-pECFP-N1) (from UniProt P10275 1-920) (receptor)
binding [1]: binds

binding [2]: binds
Molecule: androgen receptor, full-length wild type (pCMV-AR) (from UniProt P10275 1-920)

binding [3]: binds
B1: HA-tagged Ski-interacting protein (SKIP-pCGN) (natural protein, human, UniProt Q13573 1-536, looked up)
chain: MALTSFLPAPTQLSQDQLEAEEKARSQRSRQTSLVSSRREPPPYGYRKGWIPRLLEDFGDGGAFPEIHVAQYPLDMGRKKKMSNALAIQVDSEGKIKYDAIARQGQSKDKVIYSKYTDLVPKEVMNADDPDLQRPDEEAIKEITEKTRVALEKSVSQKVAAAMPVRAADKLAPAQYIRYTPSQQGVAFNSGAKQRVIRMVEMQKDPMEPPRFKINKKIPRGPPSPPAPVMHSPSRKMTVKEQQEWKIPPCISNWKNAKGYTIPLDKRLAADGRGLQTVHINENFAKLAEALYIADRKAREAVEMRAQVERKMAQKEKEKHEEKLREMAQKARERRAGIKTHVEKEDGEARERDEIRHDRRKERQHDRNLSRAAPDKRSKLQRNENRDISEVIALGVPNPRTSNEVQYDQRLFNQSKGMDSGFAGGEDEIYNVYDQAWRGGKDMAQSIYRPSKNLDKDMYGDDLEARIKTNRFVPDKEFSGSDRRQRGREGPVQFEEDPFGLDKFLEEAKQHGGSKRPSDSSRPKEHEHEGKKRRKE
